From PMC10163288
Some of the results follow.

B1: il2ra_site1_1z92_sap_10_mot_dddd11d5de81826a7497a0a2545a4374_0001_1_000000154_0001_35_49_H_._c6d4a73ca639c749d569e70f45b36260_0001_af2_0001_0000300024_0000001_0 … (protein)
chain: SSSSSSNEELRRLLDELEAAKAAGDLARARALLERLRALAEERKSPRLLAFVEWAREELESSSSS
B2: il2ra_site1_1z92_sap_18_mot_HHH_b1_03544_000000035_0001_24_41_H_._HHH_b1_08306_0001_0000500045_0000001_0_0001 (protein)
chain: SSSSDAREKFAERVVEDFVKLAGLDEEEKEQLEEVARELVERGLSNMEIARELARLAEELSSSSS
B3: il2ra_site1_1z92_sap_18_mot_HHH_b1_07316_af2_000000150_0001_43_56_H_._HHH_b2_07834_af2_0001_0000500024_0000001_0_0001_af2pred_0001_af2pred (protein)
chain: SSSSDEEVLREDLENLIKFASSHENFRKVVEKLLKLDRQLDEELVELLEELAEEVLKEFEESSSS
B4: il2ra_site2_3nfp_normal_mot_HHH_b1_06589_000000230_0001_37_50_H_._HHH_b2_02495_0001_0000300051_0000001_0_af2pred_0001_af2pred (protein)
chain: SSSSSSDYRELLAKASEIAYERNDSEAFALLARLAYRYLKEGDPEIKEELEEILRELESSSSSSS
B5: il2ra_site1_2b5i_normal_mot_HHH_b1_06428_000000224_0001_1_17_H_._HHH_b1_02461_0001_0000700038_0000001_0_af2pred_dldesign_0_af2pred (protein)
chain: SSSSSSLAEARRLLLETEELLKAGKLEELAKLKKRIDALKAASDDPKVKKIADLINEALESSSSS
B6: il2ra_site1_3nfp_sap_16_mot_HHH_b1_00678_af2_000000150_0001_43_56_H_._585a058155b04fe6777c8c1b4ba6d3d7_0001_0001_0000100001_0000001_0_0001_af2pred_0001_af2pred_ … (protein)
chain: SAMEAAAREAKKEGTLEELVEEAIKELEENANIPPEEALKLLEKDARRLGDEDLVEVIEKLAEER
B7: il2ra_site1_3nfp_sap_18_mot_HHH_b2_03549_000000219_0001_1_18_H_._HHH_b1_06169_0001_0000200013_0000001_0_0001 (protein)
chain: NDERVASKLVEEAARSAGVDEVEVSVSNGTLHVEVSGGDRAARRVEEAAKQIAEWLGVEVEVTFE
B8: il2ra_site2_2erj_sap_20_mot_35d2dc24e2c4431f89e6f806b163ecf8_0001_af2_000000103_0001_35_49_H_._HHH_b1_04470_af2_0001_0000100002_0000001_0_0001 (protein)
chain: SSSSDIEEEIKKLIEEAEELEEEGDPEKALRVLWEAARLAFENNNAELSVRIARLAMELDSSSSS
B9: il2ra_site1_2b5i_normal_mot_HHH_b2_02543_000000227_0001_1_16_H_._HHH_b1_05698_0001_0000400012_0000001_0_af2pred_dldesign_0_af2pred (protein)
chain: SSSSDRRELIEKLEELYKKLAAKGDDETEDELYELFLEAVKSNDIELLEKALKLAEAALEKSSSS
B10: il2ra_site1_2b5i_sap_10_mot_HHH_b1_06833_000000178_0001_1_19_H_._HHH_b1_05697_0001_0000400022_0000001_0_0001_af2pred_dldesign_0_af2pred (protein)
chain: SSSSSAKELVDELLKEAERLYLAGEPELARRLLILARRVAKKAKDPELVKKVEDFEKKLLESSSS
B11: il2ra_site1_1z92_normal_mot_HHH_b1_07196_000000117_0001_22_39_H_._HHH_b1_00806_0001_0000100002_0000001_1_af2pred_0001_af2pred_1 (protein)
chain: SSSSDEEKKEARELFQRANEALENGNPEEARELLEEAEELAEEGNNPSLLRSIRLALKALESSSS
B12: il2ra_site2_2erj_normal_mot_HHH_b1_02968_000000142_0001_22_39_H_._HHH_b2_06361_0001_0000300022_0000001_0_af2pred_0001_1_af2pred_swapped (protein)
chain: SSSSSSSEEEEAEELLEEAKRLKDRREVMRLALEADRLANELGNDELAEEIQEVFERKSSSSSSS
B13: il2ra_site2_3nfp_normal_mot_HHH_b2_08004_af2_000000020_0001_1_15_H_._HHH_b2_02380_0001_0000300014_0000001_1_af2pred_0001_af2pred (protein)
chain: SSSSSQLEEAVKAALRTAKLAYEEGDPELAEIALHFAKAVAIAYNNPELEREVEEVERELKSSSS
B14: il2ra_site2_3nfp_sap_10_mot_73f63e3ba0c5fbd29b02c38bc3203c89_0001_1_000000101_0001_17_33_H_._HHH_b2_00001_0001_0000300016_0000001_1_0001_af2pred_0001_1_af2pred_ … (protein)
chain: SSSSSDAEELVRELLEEAKRIEDEEEVRKLAIEASRIAWERRDPRAFVLVAEFWRERAESSSSSS
B15: il2ra_site1_1z92_sap_11_mot_HHH_b1_07444_000000170_0001_1_15_H_._HHH_b1_02142_af2_0001_0000700018_0000001_0_0001_af2pred_0001_af2pred_swapped (protein)
chain: SSSSSELEERAKELVEEIVEEFGLSESDKRALERLAERAAELGSDDEAIRRDLERFAKFSTSSSS
B16: il2ra_site1_2b5i_sap_18_mot_89dc1dc23437faef961419e82e151d9c_0001_af2_000000202_0001_15_32_H_._9f08b0091ee0dae2b2d48aa630d4ec63_0001_1_0001_0000400022_0000001_0 … (protein)
chain: SSSSSIEELLEAMLELAEELIENGNPEEARAILLLARRAARAHGNPEYVKELERLLRELLSSSSS
B17: il2ra_site2_2erj_sap_22_mot_ef9cab360851164f21447f5d7f54bf9c_0001_1_000000008_0001_32_48_H_._5e8ab3ebaa49a9e680896593b179b5f8_0001_af2_0001_0000100011_0000001_0 … (protein)
chain: SSSSDEYEEEVKRLLEEAERAYEEGDLHEVYRLAVEATHLASEGNDDELLREVAKLAHRLSSSSS
B18: il2ra_site1_3nfp_sap_21_mot_HHH_b2_07180_000000236_0001_22_38_H_._HHH_b2_06514_0001_0000100002_0000001_0_0001 (protein)
chain: DEEEIKKEVQEILGVPPEEVEHIIRLMQKTMRVPPEEATRLLRRLARELEEGDPTAKLILRLLAE
B19: il2ra_site2_3nfp_normal_mot_0136b98644bc9a8eb58b95019b738ebb_0001_1_000000071_0001_1_13_H_._HHH_b1_01738_af2_0001_0000300010_0000001_0 (protein)
chain: SSSSDEEVDKLLVLLYRLLLEGDEEKFKEVLERLEELAEEHNDEDAKELVEEIREMREAASSSSS

target: il2ra, P01589; test: yeast display titration

Apparent Kd, inactive:
B1 no binding seen, B2 no binding seen, B3 no binding seen, B4 no binding seen, B5 no binding seen, B6 no binding seen, B7 no binding seen, B8 no binding seen, B9 no binding seen, B10 no binding seen, B11 no binding seen, B12 no binding seen, B13 no binding seen, B14 no binding seen, B15 no binding seen, B16 no binding seen, B17 no binding seen, B18 no binding seen, B19 no binding seen
